{"source": "patent US20250032443A1", "about": "“TREATMENT OF MYOTONIC DISORDERS” (University of Rochester, priority 2021, published 2025)", "key": {"myotonic WT EDL": {"tested_on": "myotonic WT EDL", "test": "Myotonia, ex vivo EDL incubated with 9-AC", "design": "species or system mouse", "details": "10 mM diltiazem, 100 mM 9-AC"}, "myotonic Cav1.1^Δe29 EDL": {"tested_on": "myotonic Cav1.1^Δe29 EDL", "test": "Myotonia, ex vivo EDL incubated with 9-AC", "design": "species or system mouse", "details": "10 mM diltiazem, 100 mM 9-AC"}, "[1]": {"tested_on": "Cav1.1^Δe29+9-AC EDL muscle", "test": "Transient weakness, ex vivo EDL made myotonic with 9-AC"}}, "note": "At least one compound was matched to its structure with a doubt left."}
{"compound": "COc1ccc([C@@H]2Sc3ccccc3N(CCN(C)C)C(=O)[C@@H]2OC(C)=O)cc1", "note": "[diltiazem, cis-(+)-[2-(2-Dimethylaminoethyl)-5-(4-methoxyphenyl)-3-oxo-6-thia-2-azabicyclo[5.4.0]undeca-7,9,11-trien-4-yl]ethanoate]", "values": [{"measurement": "myotonia, all 3 tetani, vs no drug", "setting": "myotonic WT EDL", "result": "significant reduction in myotonia"}, {"measurement": "myotonia, all 3 tetani, vs no drug", "setting": "myotonic Cav1.1^Δe29 EDL", "result": "significant reduction in myotonia"}, {"measurement": "myotonia, difference between WT and Cav1.1^Δe29", "setting": "myotonic Cav1.1^Δe29 EDL", "result": "significant difference"}, {"measurement": "initial drop in force generation between the first and second tetani", "setting": "[1]; 10 mM diltiazem", "result": "improved"}, {"measurement": "transient weakness", "setting": "[1]; 10 mM diltiazem in the bath, 20-wk mice", "result": "significant improvement in transient weakness"}]}
